Molecules are shown by their SMILES.

This data set deals with dendritic cell (DC). The data set is described as follows: Sarcosine Assay kit: amount of sarcosine per cell in DCs. Format: cell-based.

As for `CNCC(=O)O` [sarcosine, N-methylglycine], the “Amount of sarcosine per cell compared with cells cultured in 20 mM sarcosine” value (DCs cultured in 20 mM sarcosine, then electroporated at 300V) is listed as “neither electroporation with 0.5 mM sarcosine nor electroporation with siRNA against SARDH increased the amount of sarcosine per cell”. Moreover, the “Intracellular level of sarcosine in a dendritic cell” value (physiological level, no sarcosine treatment) was determined as 0.13±0.06 pg/cell.

The values above are taken from patent US11674120B2, “Methods, kits, and compositions for enhancing cellular therapy” (University of Florida Research Foundation, Incorporated, priority 2016, dated 2023).
